# PubChem BioAssay AID1671190 (National Center for Advancing Translational Sciences (NCATS), 2021)
# The chains behind the UniProt entries cited, without tags or fusion partners.
# UniProt P18054, whole entry, looked up: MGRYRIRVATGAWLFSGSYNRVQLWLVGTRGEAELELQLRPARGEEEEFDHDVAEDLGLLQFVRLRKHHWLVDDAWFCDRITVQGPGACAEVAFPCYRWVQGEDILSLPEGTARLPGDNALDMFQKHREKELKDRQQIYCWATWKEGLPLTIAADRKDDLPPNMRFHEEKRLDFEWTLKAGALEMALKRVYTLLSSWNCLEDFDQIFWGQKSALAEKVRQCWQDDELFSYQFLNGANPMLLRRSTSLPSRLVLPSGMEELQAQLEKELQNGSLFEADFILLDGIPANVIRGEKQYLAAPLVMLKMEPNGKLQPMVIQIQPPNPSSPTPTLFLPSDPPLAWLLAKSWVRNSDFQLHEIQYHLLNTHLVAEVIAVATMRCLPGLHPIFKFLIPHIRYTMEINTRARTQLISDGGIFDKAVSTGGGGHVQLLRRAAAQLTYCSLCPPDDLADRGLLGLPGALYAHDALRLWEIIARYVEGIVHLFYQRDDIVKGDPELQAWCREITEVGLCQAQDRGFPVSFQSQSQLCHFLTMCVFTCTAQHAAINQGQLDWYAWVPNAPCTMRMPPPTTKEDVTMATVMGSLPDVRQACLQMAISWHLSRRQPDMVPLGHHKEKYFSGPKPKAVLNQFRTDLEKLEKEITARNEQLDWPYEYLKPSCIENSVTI
# Several values for one entry are separate records, joined by “and”; a condition that tells them apart may be missing. Equal entries are not always repeated. About 6,100 (1.1%) of roughly 580,000 compounds were called active. This list was built around the results that the source calls inconclusive (neither active nor inactive); the mix of calls is not that of the screen. Calls come from the whole dose curve; as a rule, active = well fitted inhibition curve with a large enough effect; inconclusive = small, poorly fitted or top-dose-only effect, or another doubt; inactive = no such curve, though single readings can be large or run the other way. Potencies beside an inconclusive call are fits to weak or partial responses and may not hold up.
# Target: Polyunsaturated fatty acid lipoxygenase ALOX12 (Homo sapiens) (UniProt P18054)
# Assay: Primary qHTS assay for inhibitors of human arachidonate 12S-lipoxygenase (ALOX12): Round 2
# Details: purified 12hLO, xylenol orange hydroperoxide absorbance; activity change, negative = inhibition: at 108 µM (top of the series) unless noted
# Outline: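 Hydroperoxide product was detected by ferrous iron/xylenol orange as the 573 to 405 nm absorbance ratio. Arachidonic acid at 40 uM (final) was turned over for 30 min at room temperature by 150 nM human 12hLO, pH 7.0 Hepes buffer, after 15 min compound preincubation.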
# % is set by controls: 0 for no effect and ±100 for the full control effect; potency is the fitted concentration of half-maximal effect.
SMILES,Potency,"activity change, negative = inhibition"
CCN(CC)S(=O)(=O)c1ccc(NC(=S)Nc2ccc(F)cc2)cc1,"inconclusive: 39.8 µM [inhibitor, partial curve, poor fit]",
O=C(C1=NN[C@@H]2C(=O)N(c3cccc(C(F)(F)F)c3)C(=O)[C@H]12)c1cnccn1,"inconclusive: 70.8 µM [inhibitor, partial curve, poor fit]",
CCc1noc(-c2ccn3c(CNC(=O)CCc4ccccc4)nnc3c2)n1,inactive,
CCOc1ccc(NC(=O)c2ccc3c(c2)N(CC)C2CCCN2C3=O)cc1 (configuration not stated),"inconclusive: 10 µM [inhibitor, full curve, poor fit]",
Cn1c(=O)n(C)c2cc(SCc3ccco3)c(NC(=O)c3ccc(C(C)(C)C)cc3)cc21,active: 8.91 µM,
O=C(c1ccco1)N1N=C(c2ccc(Cl)cc2)CC1c1ccc2nccnc2c1 (configuration not stated),"inconclusive: 31.6 µM [inhibitor, partial curve, poor fit]",
Cc1ccccc1-c1ccc(COc2ccc3c(cnn3CCC(=O)O)c2)cc1,active: 44.7 µM,
O=C1NCc2ccccc2CC12CCN(Cc1cccc(F)c1F)C2 (configuration not stated),"inconclusive: 39.8 µM [inhibitor, full curve]",
O=C(CCl)N(Cc1cccc([N+](=O)[O-])c1)c1cccc(Cl)c1,"inconclusive: 44.7 µM [inhibitor, partial curve, poor fit]",
Cc1ccc(NC(=O)c2cccc(NC(=O)NC(C)C)c2)cc1Cl,"inconclusive: 70.8 µM [inhibitor, partial curve, poor fit]",
O=C(Nc1ccc(Br)cc1)N1CCN(c2nc3ccccc3n2Cc2ccccc2)CC1,"inconclusive: 100 µM [inhibitor, partial curve, poor fit]",
O=C(CCc1ncc(-c2ccccc2F)o1)N1CCN(S(=O)(=O)c2ccc(F)c(Cl)c2)CC1,inactive,
COCc1ccc(C(=O)NC(C)c2ccc(F)cc2)cc1 (configuration not stated),"inconclusive: 56.2 µM [inhibitor, partial curve, poor fit]",
Cc1ccc(C(=O)NC2CC(C)(C)Cc3nc(N4CCOCC4)ncc32)cn1 (configuration not stated),"inconclusive: 17.8 µM [inhibitor, partial curve, poor fit]",
COc1ccc(-c2noc(Cn3c(=O)c4ccccc4n(CC(=O)Nc4cccc(C(F)(F)F)c4)c3=O)n2)cc1,inactive,
COC(=O)/C(C#N)=C\c1cc(Br)c(O)c(OC)c1,"inconclusive: 100 µM [inhibitor, single point]",
COc1cc(C2C(C#N)=C(N)Oc3cc(O)ccc32)cc2c1OCO2 (configuration not stated),"inconclusive: 35.5 µM [inhibitor, single point]",
CN1CCN(C2=Nc3cc(Cl)ccc3Nc3ccccc32)CC1,"inconclusive: 27.3 µM [inhibitor, partial curve, poor fit]",
COC(=O)c1[nH]c2ccccc2c1NC(=O)CN1CCC2(CC1)OCCO2,inactive,
COc1cccc(N2C(=O)NC(=NC3CCCC3)C23CCN([S+](=O)([O-])c2cccc(OC)c2)C3)c1 (configuration not stated),,inactive: 0.667% [at 6.33 µM]
CC1(CCCCN2CCOCC2)COc2ccc(C(=O)NCc3ccccc3)cc2N1 (configuration not stated),inactive,
COc1ccc(NC(=O)CCc2c(C)c3ccc(OC)cc3oc2=O)c(OC)c1,inactive,
CC(C)C(=O)Nc1ccc2c(c1)CN(CCc1ccc(F)cc1)C(=O)C(C)O2 (configuration not stated),inactive,

# Retrieved one by one from above:
SMILES,Potency,"activity change, negative = inhibition"
CCc1noc(-c2ccn3c(CNC(=O)CCc4ccccc4)nnc3c2)n1,inactive,
CC(C)C(=O)Nc1ccc2c(c1)CN(CCc1ccc(F)cc1)C(=O)C(C)O2 (configuration not stated),inactive,

# Additional records follow:

SMILES,Potency,"activity change, negative = inhibition"
CC(C)NC(=O)N(C1CC1)C1CCOC2(CCN(C(=O)Nc3ccccc3F)CC2)C1 (configuration not stated),inactive,
O=C(Oc1ccc(/C=N/Nc2nc(N3CCCCC3)nc(N3CCCCC3)n2)cc1)c1ccco1,inactive,
CC(=O)Oc1ccccc1C(=O)Nc1ccc2c(c1)CN(Cc1ccc(Cl)cc1)C(=O)C(C)O2 (configuration not stated),inactive,
Cc1noc(C)c1COc1ccc(C(=O)N2CCN(c3ccccc3O)CC2)cc1,"inconclusive: 112 µM [inhibitor, single point]",
CCn1c(-c2ccccc2F)nc2cc(NC(C)=O)cc(C(=O)N(C)Cc3cn(C)nc3C)c21,inactive,
COc1cc(C(O)c2nc3ccccc3n2C)cc(OC)c1OC (configuration not stated),"inconclusive: 89.1 µM [inhibitor, partial curve, poor fit]",
CCN(CC)S(=O)(=O)c1cccc(-c2n[nH]c(=S)n2/N=C/c2ccc(OC(F)F)cc2)c1,"inconclusive: 50.1 µM [inhibitor, partial curve, poor fit]",
O=C(Cc1ccccc1)NCC1CN(Cc2cccc(Cl)c2)CC12CN(c1ccccc1)C2 (configuration not stated),inactive,
Cc1ccc(CNS(=O)(=O)c2ccc(C(C)(C)C)cc2)n1C,"inconclusive: 44.7 µM [inhibitor, partial curve, poor fit]",
COc1ccc(NC(=O)NC(=O)c2ccccc2)cc1,"inconclusive: 89.1 µM [inhibitor, single point]",
CC(C)Cn1c(-c2ccc(F)cc2)cnc1SC(C)C(=O)NC(N)=O (configuration not stated),"inconclusive: 224 µM [inhibitor, partial curve, poor fit]",
CC(C)c1ccc(NC(=O)Nc2nc(C(N)COCc3ccccc3)cs2)cc1 (configuration not stated),"inconclusive: 63.1 µM [inhibitor, partial curve, poor fit]",
COc1ccc2c(c1)CCC/C2=N/OC(=O)c1ccccc1OC,inactive,
CCN1C(=O)C2CC3(CCN(C(=O)c4ccoc4)CC3)CN2C1=O (configuration not stated),inactive,
Cc1cc(C(=O)NCc2cccnc2)c(C)s1,inactive,
Cc1ccc(C)c(S(=O)(=O)N2CCN(Cc3cccc4cccnc34)CC2)c1,"inconclusive: 158 µM [inhibitor, partial curve, poor fit]",
CC(C)c1ccccc1OCCCN1CCCC1,"inconclusive: 0.708 µM [inhibitor, full curve]",
NNc1nc(-c2ccccc2)c2cc(Br)ccc2n1,"inconclusive: 79.4 µM [inhibitor, single point]",
O=C(O)CCCCNCc1ccccc1,inactive,
CC(C)NC(=O)N1Cc2[nH]cnc2C[C@H]1c1nc(-c2ccc3c(c2)OCO3)no1,"inconclusive: 50.1 µM [inhibitor, single point]",
COc1ccc2[nH]cc(CCNC(=O)CNc3nc(Cl)nc4nc[nH]c34)c2c1,inactive,
Cc1ccc(C(=O)N2CCC3(CN[S+](=O)([O-])c4ccccc4N3)C2)cc1 (configuration not stated),"inconclusive: 35.5 µM [inhibitor, full curve]",
CCC(=O)N/C(N)=N/c1nc(C)c2cc(OC)ccc2n1,"inconclusive: 0.282 µM [inhibitor, full curve, poor fit]",

# Copied from the list.
# O=C(O)CCCCNCc1ccccc1 – Potency: inactive
# O=C(Nc1ccc(Br)cc1)N1CCN(c2nc3ccccc3n2Cc2ccccc2)CC1 – Potency: inconclusive: 100 µM [inhibitor, partial curve, poor fit]
# COc1ccc2c(c1)CCC/C2=N/OC(=O)c1ccccc1OC – Potency: inactive

# (list continues)

SMILES,Potency,"activity change, negative = inhibition"
COC(c1ccc(Cl)cc1)(c1ccc(Cl)cc1)C(Oc1nccc(C)n1)C(=O)O (configuration not stated),inactive,
C[C@H](NC(=O)[C@H](Cc1ccccc1)NC(=O)c1cc2cc(Cl)ccc2n1C)C(=O)O,"inconclusive: 25.1 µM [inhibitor, single point]",
O=C(Nc1ccc(F)cc1)N1CCN(c2ccc3nnc(-c4ccc(F)cc4)n3n2)CC1,"inconclusive: 89.1 µM [inhibitor, partial curve, poor fit]",
COc1ccc(-c2csc(NC(=O)c3ccccc3NS(=O)(=O)c3ccc(F)c(F)c3)n2)cc1,"inconclusive: 39.8 µM [inhibitor, partial curve, poor fit]",
Cc1cc(C(=O)N[C@H](C)c2onc(C)c2C(=O)O)no1,inactive,
Cn1nc(-c2ccc(OCC(=O)Nc3ccc(F)cc3)cc2)c2ccccc2c1=O,inactive,
CCOc1ccc(S(=O)(=O)N/N=C2/CC(c3ccccc3)Oc3ccccc32)cc1 (configuration not stated),"inconclusive: 39.8 µM [inhibitor, partial curve, poor fit]",
Cc1noc(-c2cccs2)c1C(=O)NCCC(c1ccccc1)c1ccccc1,"inconclusive: 31.6 µM [inhibitor, partial curve]",
COc1cc(NC(=O)N[C@H]2CO[C@H]3[C@@H]2OC[C@@H]3Nc2nccc(C(C)(C)C)n2)cc(OC)c1,"inconclusive: 15.8 µM [inhibitor, full curve, poor fit]",
COc1cccc(CN2C(=O)N(c3ccc(C)cc3)C(=O)C2CC(=O)Nc2cc(OC)cc(OC)c2)c1 (configuration not stated),inactive,
CNc1nc(-c2ccc3c(c2)CCN3S(=O)(=O)c2ccccc2)c(C)s1,"inconclusive: 31.6 µM [inhibitor, partial curve, poor fit]",
CCCCn1c(=O)n(CC(=O)Nc2cccc(F)c2)c(=O)c2c1ncn2Cc1ccco1,"inconclusive: 100 µM [inhibitor, partial curve, poor fit]",
CCc1ccc(C(=O)Nc2ccc(O)c(-c3nc4ccccc4o3)c2)cc1,inactive,
COc1ccccc1NC(=O)Cn1c(=O)c2c(ncn2CC(C)C)n(CC(C)C)c1=O,inactive,
Cc1ccccc1NC(=O)CN(C)C1=NS(=O)(=O)c2ccccc21,inactive,
COc1ccc(CN2CCc3oc(C)c(C(=O)N4CCN(C(C)=O)CC4)c3C2)cc1,"inconclusive: 7.94 µM [inhibitor, full curve]",
Cc1c(Cl)cccc1NC(=S)NC1CCN(C(C)C)CC1,"inconclusive: 22.4 µM [inhibitor, single point]",
Cc1ccccc1NC(=O)c1ncoc1-c1cccs1,inactive,
CC(C)C(C)NC(=O)COc1ccc([N+](=O)[O-])cc1Cl (configuration not stated),inactive,
COc1ccc(CC(=O)Oc2ccc(Br)cc2F)cc1S(=O)(=O)N1CCOCC1,"inconclusive: 89.1 µM [inhibitor, partial curve, poor fit]",
Cc1c(C(=O)c2ccccc2)c2ccccn2c1CCC#N,"inactive and inconclusive: 79.4 µM [inhibitor, partial curve, poor fit]",
